Values from PubChem BioAssay AID1259308 (NCATS, 2017).
In all, the deposit lists about 59,000 reagents; shown is an unselected part. Of all reagents, about 1,510 (2.6%) are marked active. 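Calls use total luciferase alone and ignore viability, so some active siRNAs may act by altering cell number.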 Unmarked entries are inactive. The numbers tell different reagents against one gene apart. Not all columns of the deposit are shown.

- Screen: 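Knock-downs that increase output of a recombinant reporter protein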 (primary screen)
- Cells: human HEK293 embryonic kidney cells stably expressing firefly luciferase (HEK-CMV-Luc2-Hygro)
- Knock-down reagent: single siRNA against human genes, 0.8 pmol siRNA per well
- Timing: 72 h
- Detection: 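Luciferase light (ONE-Glo) measured on one replicate plate set and viability (CellTiter-Glo) on the other, scaled to a negative control siRNA, with robust z-scores and luciferase per cell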
- Direction: total luciferase, z-score: higher = more reporter protein produced
- Hit rule: 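Active when the median/MAD z-score for overall luciferase is greater than 3; a gene was taken forward for validation with new siRNAs if at least two of its three siRNAs passed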
- Calls: active = raised luciferase; inactive = no rise

total luciferase, z-score, by target and reagent
PLVAP: #1 0.0254; #2 3.56 (active); #3 0.216
TBL3: #1 -0.758; #2 -1.59; #3 -0.474
C1QC: #1 0.593; #2 -1.35; #3 5 (active)
CPE: #1 -0.456; #2 0.114; #3 0.654
PLD1: #1 -0.236; #2 0.43; #3 2.19
DDX18: #1 -0.956; #2 0.3; #3 -1.4
TIMM29: #1 0.00128; #2 0.0132; #3 -0.552
DAB2: #1 -0.522; #2 1.88; #3 -0.869
H2AC6: #1 -0.534; #2 -1.17; #3 -1.94
UBIAD1: #1 0.0315; #2 -0.966; #3 -0.556
RAD21: #1 0.0899; #2 -1.15; #3 -0.898
SERPINA1: #1 -0.678; #2 1.22; #3 -0.617
SDHB: #1 -1.05; #2 1.36; #3 0.65
UNC50: #1 -0.203; #2 -0.518; #3 0.454
MTA2: #1 0.405; #2 0.133; #3 1.88
FNDC4: #1 0.424; #2 0.36; #3 0.0261
LRRC57: #1 0.0968; #2 0.378; #3 0.494
ELK4: #1 1.1; #2 0.266; #3 -0.559
VSTM2B-DT: #1 -0.828; #2 0.771; #3 -0.486
PCDHB5: #1 0.14; #2 0.57; #3 -1.45
OR10H2: #1 0.812; #2 2.51; #3 1.11
EIF1P3: #1 -1.79; #2 -0.721; #3 0.347
MORC2: #1 2.48; #2 2.6; #3 1.4
PCNX3: #1 2.54; #2 -0.904; #3 0.367
TMEM51: #1 -2.91; #2 0.374; #3 0.238

Single entries from above:
MORC2 #3, total luciferase, z-score = 1.4
Entry for UNC50 #2 under “total luciferase, z-score”: -0.518
TBL3 #3, total luciferase, z-score = -0.474
Value of PCDHB5 #1 in “total luciferase, z-score”: 0.14
For “total luciferase, z-score”, DAB2 #1 has -0.522
FNDC4 #3, total luciferase, z-score → 0.0261
